Assay results: PubChem BioAssay AID1487 (National Center for Advancing Translational Sciences (NCATS), 2009)
The list shows a part of the results. Shown are side measurements of this screen, not its main read-out; they come without a call. Compounds called inactive in the main read-out are mostly missing here. Words in brackets tell the shape of the fitted curve; partial curves, single points and poor fits give uncertain potencies.

Assay: qHTS Assay for Modulators of Lamin A Splicing
Settings: HeLa LMNA splicing GFP/RFP minigene ratio, 48 h
Outline: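 Read-out is the ratio of GFP to DsRed2 object intensity, acquired by 488 nm laser-scanning cytometry on HeLa lamin A-EGFP minigene reporter cells. Compound incubation 48 hrs at 37 °C in Opti-MEM with 2% FBS; DMSO 0.5% final.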

[1] = measured here: GFP splicing reporter channel
[2] = measured here: RFP viability control channel

Structure (SMILES) | AC50 [1] | AC50 [2]
COc1cc(NS(=O)(=O)c2ccc3[nH]c4c(c3c2)CCCCCC4)cc(OC)c1 | 22.4 µM [falling, partial curve] | 22.4 µM [falling, partial curve]
CC1=C(C#N)C(c2cn(-c3ccccc3)nc2-c2cccs2)C(C#N)=C(C)N1 | – | 14.1 µM [rising, single point]
CSc1nncc(-c2ccccc2)n1 | 0.0178 µM [falling, full curve, poor fit] | –
O=C(OCC(=O)c1ccc[nH]1)c1ccccc1 | 0.00355 µM [falling, full curve, poor fit] | –
CN(C)S(=O)(=O)c1ccc2[nH]cc(/C=C/c3nc4ccccc4c(=O)n3-c3ccccc3)c2c1 | 35.5 µM [falling, single point] | 22.4 µM [falling, partial curve]
COc1ccc(NC(=O)CSc2ncccc2C(=O)OC(C)C)cc1OC | – | 8.91 µM [rising, partial curve]
COc1cccc(NS(=O)(=O)c2ccc(-c3cc(C)no3)s2)c1 | – | 12.6 µM [rising, single point]
CCC(c1nnnn1Cc1ccccc1)N(Cc1ccco1)Cc1cc2cc(OC)ccc2[nH]c1=O (stereo unspecified) | 22.4 µM [falling, partial curve, poor fit] | 20 µM [falling, partial curve]
COc1ccccc1Cn1c(=S)[nH]c2cc(C(=O)NCCN3CCOCC3)ccc2c1=O | – | 6.31 µM [rising, partial curve, poor fit]
CCOc1ccccc1N(C(C)=O)S(=O)(=O)c1ccc(Cl)cc1 | – | 35.5 µM [rising, single point]
Cc1ccccc1-c1nc(-c2ccc(NC(=O)c3ccc4c(c3)OCO4)cc2)no1 | – | 0.631 µM [rising, full curve]
CCn1cc(C(=O)NNC(=O)c2ccc(Cl)cc2)c(=O)c2ccc(C)nc21 | – | 11.2 µM [rising, single point]
Cc1ccc(-c2nc(SCC(=O)NCc3ccco3)c3c(=O)n(C)c(=O)n(C)c3n2)cc1 | – | 15.8 µM [rising, single point]
CCCc1nc2ccccc2c(=O)n1/N=C/c1ccc(O)cc1 | – | 15.8 µM [rising, partial curve]
O=C(O)C1C2CCC(O2)C1C(=O)Nc1ccc(F)cc1 (stereo unspecified) | 35.5 µM [rising, single point] | 14.1 µM [rising, partial curve, poor fit]
CCCN(CCC)S(=O)(=O)c1ccc(C(=O)N2CC3CCC(CC3)C2)cc1 | 3.98 µM [falling, partial curve] | 25.1 µM [falling, partial curve]
O=S(=O)(c1ccc(Oc2ncnc3scc(-c4ccccc4)c23)cc1)N1CCOCC1 | 10 µM [rising, partial curve] | 15.8 µM [rising, single point]
N#Cc1cccc(C#N)c1N1CCC(C#N)CC1 | 6.31 µM [rising, partial curve, poor fit] | –
COC(=O)c1cnc(N2CCN(c3ccccc3F)CC2)c2ccccc12 | 0.0224 µM [rising, full curve, poor fit] | –
O=C(NCc1ccc(F)cc1)c1ccccc1OCc1ccccc1 | 11.2 µM [rising, partial curve] | 17.8 µM [rising, partial curve]
Cn1c(=O)nc2n(Cc3ccccc3)c3ccccc3cc-2c1=O | – | 11.2 µM [falling, partial curve, poor fit]
C/C(CC(=O)Nc1cc(Cl)ccc1Cl)=N\NC(N)=S | – | 35.5 µM [falling, single point]
COc1ccc(OC)c(NC(=O)c2c(NCc3cccs3)sc3c2CCCC3)c1 | 12.6 µM [falling, partial curve] | –
CCn1ncc(Cl)c1C(=O)NC(=S)Nc1c(C)cc(C)cc1[N+](=O)[O-] | 12.6 µM [rising, single point] | 31.6 µM [rising, single point]
CCC(OC(=O)c1nsc(Cl)c1Cl)C(=O)NC(C)(C)CC (stereo unspecified) | 0.282 µM [falling, full curve, poor fit] | –
CCCOC(=O)Nc1sc2c(c1C(N)=O)CCCC2 | 0.0708 µM [falling, full curve, poor fit] | 6.31 µM [falling, partial curve, poor fit]
Cc1cccc(OCc2nnc(SCC(=O)Nc3cccc(C(=O)N4CCOCC4)c3)n2C)c1C | 11.2 µM [rising, partial curve] | 17.8 µM [rising, single point]

Structure (SMILES) | AC50 [1] | AC50 [2]
O=C(Cn1c(-c2cccs2)cc2ccccc21)NCCc1ccc(Cl)cc1 | 10 µM [rising, partial curve] | 10 µM [rising, partial curve]
COc1ccccc1N1CCN(C(=O)CN(Cc2ccc(Cl)cc2)S(C)(=O)=O)CC1 | – | 15.8 µM [rising, single point]
COc1cccc(NC(=O)Cn2c(CCC(=O)O)ccc2-c2ccc(Cl)cc2)c1 | – | 0.0355 µM [falling, full curve]
Cc1ccc(CNS(=O)(=O)c2cc3c(cc2C)NC(=O)CO3)cc1 | – | 35.5 µM [falling, partial curve, poor fit]
Cc1ccc(C)c(N2CCN(C(=O)c3csc(C)c3C)CC2)c1 | 35.5 µM [rising, single point] | 35.5 µM [rising, single point]
Cc1cncn1CCc1nc2c3ccccc3nc(SCC(=O)Nc3cccc(Cl)c3)n2n1 | – | 11.2 µM [rising, partial curve]
Cc1ccc(NC(=O)CN2C(=O)NC(Cc3c[nH]c4ccccc34)C2=O)cc1S(=O)(=O)N1CCCCC1 (stereo unspecified) | 25.1 µM [rising, single point] | 28.2 µM [rising, single point]
COc1ccc(C2=Nn3c(nnc3-c3ccccc3OC)SC2)cc1OC | 1.41 µM [falling, full curve] | 1.58 µM [falling, full curve]
COc1ccc(NC(=O)Cn2nnc(-c3ccccc3NS(=O)(=O)c3ccccc3)n2)cc1 | – | 2.82 µM [rising, partial curve, poor fit]
CN(C)c1ccc(/C=C2\SC(=O)N(CC(O)Cn3c4ccccc4c4ccccc43)C2=O)cc1 (stereo unspecified) | – | 3.98 µM [rising, full curve, poor fit]
COc1ccc(N2CCN(Cc3nc(-c4ccc(Cl)cc4Cl)no3)CC2)cc1 | – | 15.8 µM [rising, partial curve, poor fit]
Cc1ccc(OCC(=O)N(c2ccccn2)C2CCCCC2)c(C)c1 | – | 12.6 µM [rising, partial curve]
c1ncc(-c2ccc3c(c2)OCO3)c(NCCc2cnc[nH]2)n1 | 8.91 µM [falling, partial curve, poor fit] | 0.891 µM [falling, partial curve]
Cc1nc2sc3c(NCc4ccco4)ncnc3c2c2c1COC(C)(C)C2 | 17.8 µM [rising, partial curve] | 20 µM [rising, partial curve]
CCOc1cccc(CNc2ccc(O)cc2)c1OCc1ccc(Cl)cc1Cl | 17.8 µM [rising, single point] | 31.6 µM [rising, single point]
Cc1cccc2sc(NC(=O)CN(C)S(=O)(=O)c3ccc(Br)s3)nc12 | 15.8 µM [rising, partial curve] | 20 µM [rising, single point]
Cc1ccc(Oc2ccc(NC(=O)CSc3n[nH]c(N)n3)cc2)cc1 | 15.8 µM [rising, partial curve] | 31.6 µM [rising, single point]
COc1ccccc1NC(=O)c1cnc(SCC(=O)N2CCCc3ccccc32)n(C)c1=O | 6.31 µM [falling, partial curve, poor fit] | 3.98 µM [falling, single point]
Cc1cccc(-c2nc(CSc3nc4c(c(=O)[nH]3)CCC4)c(C)o2)c1 | 0.00562 µM [rising, full curve, poor fit] | –
Cc1cc(C)nc(SCC(=O)Nc2ccc(S(=O)(=O)N3CCCCC3)cc2)n1 | – | 11.2 µM [rising, single point]
CC1=C(C)/C(=N/OC(=O)c2cccc([N+](=O)[O-])c2)C=CC1=O | 35.5 µM [falling, single point] | 35.5 µM [falling, single point]
CC(=O)c1ccc(-c2cccs2)s1 | 0.316 µM [rising, partial curve, poor fit] | 1.78 µM [rising, partial curve]
CCOc1ccc(-c2csc(NC(=O)C3CCCO3)n2)cc1 (stereo unspecified) | – | 5.62 µM [rising, partial curve]
CCOC(=O)C1=C(O)c2ccccc2C(=O)/C1=C\c1ccc(CC)cc1 | 14.1 µM [falling, single point] | 5.62 µM [rising, full curve, poor fit]
COC(=O)CS(=O)(=O)c1nnc([C@H](Cc2ccccc2)NC(=O)OC(C)(C)C)o1 | – | 11.2 µM [rising, partial curve, poor fit]
CC(=O)Nc1ccc(Nc2cc(C)nc3c(-c4ccc(Cl)cc4)cnn23)cc1 | – | 35.5 µM [rising, single point]

An excerpt from above in order of SMILES length, smallest number first.
Structure (SMILES) | AC50 [1] | AC50 [2]
O=C(O)C1C2CCC(O2)C1C(=O)Nc1ccc(F)cc1 (stereo unspecified) | 35.5 µM [rising, single point] | 14.1 µM [rising, partial curve, poor fit]
Cc1ccc(Oc2ccc(NC(=O)CSc3n[nH]c(N)n3)cc2)cc1 | 15.8 µM [rising, partial curve] | 31.6 µM [rising, single point]
O=C(Cn1c(-c2cccs2)cc2ccccc21)NCCc1ccc(Cl)cc1 | 10 µM [rising, partial curve] | 10 µM [rising, partial curve]
